Results on one substance are retold here after patent US20170369589A1 (INBIOMOTION S L, published 2017).

These are yes or no findings as the source states them, for the method shown. Some binding calls cover weakened binding; strength is not graded here.

The target in the assay is INB-1-11-8 c-MAF specific monoclonal antibody (rabbit). The assay can be described thus: SPR, Biacore T200; antibody captured on immobilized recombinant Protein A. (In general: SPR reads the build-up and loss of mass on a sensor chip optically.)

In the case of “Recombinant Protein A (from UniProt P38507 37-327)”, the binding entry was “binds”.
